{"source": "PubChem BioAssay AID624297", "about": "(National Center for Advancing Translational Sciences (NCATS), 2012)", "note": "The campaign covered roughly 340,000 compounds. About 6,200 (1.8%) were called active. The inconclusive results got no clear call from the source; some entries with a clear call stand among them for comparison. Calls come from the whole dose curve; as a rule, active = well fitted activation curve with a large enough effect; inconclusive = small, poorly fitted or top-dose-only effect; inactive = no such curve, though single readings can be large or run the other way. Potencies beside an inconclusive call are fits to weak or partial responses and may not hold up. Potency is the fitted concentration of half-maximal effect.", "data": [{"assay": "A quantitative high throughput screen for small molecules that induce DNA re-replication in SW480 colon adenocarcinoma cells; note: nearly all actives have a fitted effect of over 55% in size.", "conditions": "Hoechst DNA content imaging, 48 h; series mostly up to 46.1 µM", "how_it_was_run": "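Image-based read-out: total Hoechst fluorescence of nuclei (405 nm excitation, 500-530 nm emission), with hits raising the fraction of high-intensity nuclei. SW480 colon cells incubated 48 hr with compounds at 37 C.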", "values": [{"smiles": "CC(=O)OC1COC(OC(C)=O)CO1", "note": "(configuration not stated)", "Potency": "inactive"}, {"smiles": "O=C(c1ccccc1[N+](=O)[O-])N1N=C(c2ccccc2)CC1(O)C(F)(F)F", "note": "(configuration not stated)", "Potency": "inactive"}, {"smiles": "CCCc1ccc(C(C)NC(=S)NC2CCCCC2)cc1", "note": "(configuration not stated)", "Potency": "inconclusive: 16.4 µM [activator, single point]"}, {"smiles": "Cn1cc(CN2CCCCC2C(=O)Nc2ccc(-n3cccn3)cc2)cn1", "note": "(configuration not stated)", "Potency": "inconclusive: 11.6 µM [activator, single point]"}, {"smiles": "CCOC(=O)c1ccccc1NC(=O)C1CC(=O)N(C2CCCCC2)C1", "note": "(configuration not stated)", "Potency": "inactive"}, {"smiles": "O=C(Nc1ccc(Nc2ccccc2)cc1)c1ccccc1", "Potency": "inconclusive: 6.51 µM [activator, single point]"}, {"smiles": "CC1=C(C(=O)N(C)C)C(c2cccc(Cl)c2)NC(=O)N1", "note": "(configuration not stated)", "Potency": "inactive"}, {"smiles": "C/C(=N\\OC(=O)c1cccc(C)c1)c1sc(-c2ccccc2)nc1C", "Potency": "inactive"}, {"smiles": "O=C(CN1C(=O)NC2(CCCC2)C1=O)Nc1nc(-c2ccc(F)c(F)c2)cs1", "Potency": "inactive"}, {"smiles": "COC(=O)c1ccc(NC(=S)NC(=O)c2c(Cl)cnn2C)cc1", "Potency": "inactive"}, {"smiles": "COc1cc(C(=O)Oc2cccc(C=O)c2)cc(OC)c1OC", "Potency": "active: 16.4 µM"}, {"smiles": "Cc1cccc2sc(NNC(=O)c3ccc4c(c3)OCCO4)nc12", "Potency": "inconclusive: 29.1 µM [activator, single point]"}, {"smiles": "COc1ccc(NC(=O)/C(C#N)=C\\c2ccc(Br)o2)cc1", "Potency": "inactive"}, {"smiles": "O=C(NC1CC1)C1=C[C@@H](c2csc3ccccc23)C[C@@H](OCc2ccc(CO)cc2)O1", "Potency": "inconclusive: 6.51 µM [activator, single point]"}, {"smiles": "COc1ccc(N(S(=O)(=O)c2ccccc2)S(=O)(=O)c2ccccc2)c(N)c1", "Potency": "inconclusive: 23.1 µM [activator, single point]"}, {"smiles": "N/C(=N\\OC(=O)N1CCOCC1)c1ccc(Cl)cc1", "Potency": "inconclusive: 29.1 µM [activator, partial curve, poor fit]"}, {"smiles": "Cc1ccc(CNC(=O)c2ccc(OCC(C)C)cc2)n1C", "Potency": "inactive"}, {"smiles": "CC(=O)N1CCN(c2ccc(NC(=O)c3ccc(Br)o3)cc2Cl)CC1", "Potency": "inactive"}, {"smiles": "S=C(S)OC1CC2CC1C1CCCC21", "note": "(configuration not stated)", "Potency": "inconclusive: 0.0291 µM [activator, full curve, poor fit]"}, {"smiles": "O=C(N/N=C/c1ccc(-c2cccc([N+](=O)[O-])c2)o1)c1ccc([N+](=O)[O-])cc1", "Potency": "inconclusive: 16.4 µM [activator, single point]"}, {"smiles": "CCC(C)NC(=O)CSc1nc2ccccc2c(=O)n1Cc1ccc(OC)cc1", "note": "(configuration not stated)", "Potency": "inactive"}, {"smiles": "CC(C)(C)OC(=O)NCCCCCNC(=O)c1[nH]cnc1C(=O)N[C@@H](Cc1ccccc1)C(=O)OCc1ccccc1", "Potency": "inconclusive: 29.1 µM [activator, single point]"}, {"smiles": "COc1cccc(Cn2c(=S)[nH]c3ccc(N4CCOCC4)cc3c2=O)c1", "Potency": "inconclusive: 16.4 µM [activator, single point]"}, {"smiles": "Cc1ccc(-c2nn(-c3ccccc3)cc2/C=C/C(=O)Nc2cccc(S(N)(=O)=O)c2)cc1", "Potency": "inconclusive: 23.1 µM [activator, single point]"}, {"smiles": "COc1cc(NC(=O)NCc2ccco2)ccc1-c1ccc(NC(=O)NCc2ccco2)cc1OC", "Potency": "inconclusive: 6.51 µM [activator, single point]"}, {"smiles": "Cc1ccc(CN(C(=O)N2CCN(C)CC2)S(=O)(=O)c2ccc(C)cc2)cc1", "Potency": "inconclusive: 29.1 µM [activator, single point]"}, {"smiles": "O=[N+]([O-])c1ccc(N/N=C/c2cccc(O)c2O)c(S(=O)(=O)N2CCOCC2)c1", "Potency": "active: 4.11 µM"}, {"smiles": "O=C(Nc1ccc(Cl)cc1)c1cccnc1N1CCCCC1", "Potency": "inactive"}, {"smiles": "O=c1oc(-c2ccccc2)cc(Cl)c1Cl", "Potency": "active: 9.2 µM"}, {"smiles": "O=C(NCCCN1CCN(c2cccc(Cl)c2)CC1)c1ccc(N2CCCC2=O)cc1", "Potency": "inconclusive: 3.66 µM [activator, full curve, poor fit]"}, {"smiles": "COc1ccc(-c2cc(=O)oc3c(O)c(O)ccc23)cc1", "Potency": "inconclusive: 29.1 µM [activator, partial curve, poor fit]"}, {"smiles": "O=C(Cc1ccccc1)NCc1ccc(-n2cccc2)cc1", "Potency": "active: 6.51 µM"}, {"smiles": "Cc1cc(C(=O)N/N=C/c2ccc(OCc3ccccc3)cc2)c(C)o1", "Potency": "inactive"}, {"smiles": "CC(OC(=O)c1cc2sccc2n1C)C(=O)NCCc1ccccc1", "note": "(configuration not stated)", "Potency": "inconclusive: 23.1 µM [activator, single point]"}, {"smiles": "Cc1cc(NC(=O)c2ccccc2NS(=O)(=O)c2c(C)c(C)cc(C)c2C)no1", "Potency": "active: 9.2 µM"}, {"smiles": "O=c1ccnc(S/C=C/c2ccccc2)[nH]1", "Potency": "inconclusive: 18.4 µM [activator, single point]"}, {"smiles": "COc1cc(OC)cc(C(=O)N[C@H](C(=O)Nc2nc(-c3ccc(F)c(F)c3)cs2)C(C)C)c1", "Potency": "inconclusive: 29.1 µM [activator, single point]"}, {"smiles": "CC1=C(C(=O)OCC2CCCO2)C(c2ccsc2)C2=C(CCCC2=O)N1", "note": "(configuration not stated)", "Potency": "inconclusive: 0.517 µM [activator, full curve, poor fit]"}, {"smiles": "N#CCSc1nnc(-c2sc3ccccc3c2Cl)o1", "Potency": "inconclusive: 20.6 µM [activator, single point]"}, {"smiles": "Cc1cccc(CCN(C(=O)Cc2cccs2)C(C(=O)NC2CCCCC2)c2cccnc2)c1", "note": "(configuration not stated)", "Potency": "inconclusive: 10.3 µM [activator, single point]"}, {"smiles": "COc1ccc(OCCSc2nnc3sc4ccccc4n23)cc1", "Potency": "inconclusive: 29.1 µM [activator, single point]"}, {"smiles": "Cc1nc2ccccc2c(=O)n1N(c1ccccc1)c1ccccc1", "Potency": "inconclusive: 2.59 µM [activator, partial curve]"}, {"smiles": "COc1ccc(CCN(C)CCCN2CCc3cc(OC)c(OC)cc3CC2=O)cc1OC", "Potency": "inactive"}, {"smiles": "Fc1cccc(NC(=S)NNc2ccccc2)c1", "Potency": "inconclusive: 29.1 µM [activator, single point]"}, {"smiles": "COc1ccc(OC)c(Nc2nc(N)c([N+](=O)[O-])c(NCc3ccccc3)n2)c1", "Potency": "inconclusive: 6.51 µM [activator, single point]"}, {"smiles": "COC(=O)/C=c1\\[nH]c2nnc(C)n2c1=O", "Potency": "inactive"}, {"smiles": "CCOc1cc(/C=N/NC(=O)c2ccc(CN3CCOCC3)cc2)ccc1OC", "Potency": "inconclusive: 5.17 µM [activator, full curve, poor fit]"}]}]}
